In the supplement of paper PMC6143611:
Structures can show the parent of a compound that is named as a salt. ± gives the uncertainty stated by the source. This is one part of the list. Baselines shift from plate to plate; read single values as rough.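 A heat-shock-induced fluorescent stripe was set in larval rod outer segments at 6 dpf. Shedding distance ran from stripe to outer segment tip, measured by confocal stacks in about three fish per compound. Controls: 0.2% DMSO vehicle. Flagged compounds showed ≥20% change from same-week control, p < 0.001 (Dunnett test on mixed-effects models).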

Legend:
[1] = system: Danio rerio larva rod photoreceptor outer segment; assay: rod outer segment growth distance Dg, difference from same-week DMSO control mean; higher = more outer segment growth; conditions: 20 µM; treatment time: 4 days (6-10 dpf)
[2] = system: Danio rerio larva rod photoreceptor outer segment; assay: rod outer segment shedding distance Ds, difference from same-week DMSO control mean; higher = less outer segment shedding; conditions: 20 µM; treatment time: 4 days (6-10 dpf)

SMILES | rod outer segment growth distance Dg [1] | rod outer segment shedding distance Ds [2]
COC(=O)Nc1nc2cc([S+]([O-])c3ccccc3)ccc2[nH]1 (centres undefined) [Oxfendazole] | 0.17 ± 0.18 um | -0.34 ± 0.28 um
CN1CCc2c(c3ccccc3n2Cc2ccc(C(=O)NO)cc2)C1 [Tubastatin A HCl] | -0.62 ± 0.18 um | -0.26 ± 0.11 um
Cc1cc(C)c(CNC(=O)c2cc(-c3ccc(CN4CCOCC4)cc3)cc3c2cnn3C2CCCC2)c(=O)[nH]1 | 0.11 ± 0.15 um | -0.51 ± 0.14 um
Cc1ccccc1C(=O)Nc1ccc(C(=O)N2CCCC(N(C)C)c3ccccc32)cc1 (centres undefined) [Mozavaptan] | -1.15 ± 0.17 um | -0.11 ± 0.13 um
O=C(O)CCCN1CCC(O[C@@H](c2ccc(Cl)cc2)c2ccccn2)CC1 [Bepotastine Besilate] | 0.4 ± 0.15 um | 0.05 ± 0.16 um
CN1c2cc(O)c(N=NC(N)=O)cc2CC1S(=O)(=O)O (centres undefined) [Carbazochrome sodium sulfonate (AC-17)] | -0.72 ± 0.21 um | -0.43 ± 0.17 um
Cc1cc(Nc2cc(CN3CCOCC3)c3nc(C)c(Cc4ccc(Cl)cc4F)n3n2)n[nH]1 | -0.47 ± 0.34 um | -1.12 ± 0.25 um
C[C@H]1COc2c(N3CCN(C)CC3)c(F)cc3c(=O)c(C(=O)O)cn1c23 [Levofloxacin] | -0.49 ± 0.19 um | -1.32 ± 0.29 um
N#Cc1ccc2[nH]c(O)c(-c3ccc(CN4CCOCC4)cn3)c2c1 | -0.75 ± 0.29 um | -1.23 ± 0.4 um
O=c1ncccn1[C@@H]1O[C@H](CO)[C@@H](O)[C@H]1O [Zebularine] | -0.33 ± 0.21 um | 0.3 ± 0.29 um
NC(=O)Nc1sc(-c2ccc(F)cc2)cc1C(N)=O | -0.86 ± 0.17 um | 0.25 ± 0.14 um
N#C[C@@H]1C[C@@H]2C[C@@H]2N1C(=O)[C@@H](N)C12CC3CC(CC(O)(C3)C1)C2 [Saxagliptin] | -0.56 ± 0.23 um | -0.64 ± 0.23 um

Single records, from the list above:
COC(=O)Nc1nc2cc([S+]([O-])c3ccccc3)ccc2[nH]1 (centres undefined) [Oxfendazole] reads rod outer segment growth distance Dg [1]: 0.17 ± 0.18 um; rod outer segment shedding distance Ds [2]: -0.34 ± 0.28 um
O=C(O)CCCN1CCC(O[C@@H](c2ccc(Cl)cc2)c2ccccn2)CC1 [Bepotastine Besilate] reads rod outer segment growth distance Dg [1]: 0.4 ± 0.15 um; rod outer segment shedding distance Ds [2]: 0.05 ± 0.16 um
